{"source": "PubChem BioAssay AID248", "about": "(DTP/NCI, 2004)", "test_system": "L1210 leukemia ip in BDF1 mice, survival T/C", "experiment": "NCI In Vivo Anticancer Drug Screen. Data for tumor model L1210 Leukemia (intraperitoneal) in B6D2F1 (BDF1) mice", "details": "T/C endpoint: mean survival time, higher T/C = longer survival", "key": {"[1]": {"details": "dose: 150.0 mg/kg/injection, schedule: Q01DX001 (ip), vehicle: saline"}, "[2]": {"details": "dose: 300.0 mg/kg/injection, schedule: Q01DX001 (ip), vehicle: saline"}, "[3]": {"details": "dose: 400.0 mg/kg/injection, schedule: Q04DX003 (ip), vehicle: saline"}, "[4]": {"details": "dose: 100.0 mg/kg/injection, schedule: Q04DX003 (ip), vehicle: Klucel (hydroxypropylcellulose) (HPC)"}, "[5]": {"details": "dose: 200.0 mg/kg/injection, schedule: Q04DX003 (ip), vehicle: Klucel (hydroxypropylcellulose) (HPC)"}, "[6]": {"details": "dose: 400.0 mg/kg/injection, schedule: Q04DX003 (ip), vehicle: Klucel (hydroxypropylcellulose) (HPC)"}}, "note": "The list shows only some results of the screen, not a fair sample: it gathers tests that were run many times, whatever their T/C, doses with no T/C, and many T/C values between a quarter and a half above the control. Other doses and runs of a compound stand elsewhere. T/C: endpoint of the treated group in % of that of the vehicle group. Some entries give survivors of the animals treated and no T/C: the source files T/C as zero there, which appears to mark a toxic dose or a test without result, not a measured value. Some doses without a T/C left all or most animals alive at the check, yet need not have been tolerated: the source hardly ever lists a survival T/C far under the control, and the zero likely stands for such cases as well. Survivors were counted at the toxicity check, usually on the fifth day, unless a day is given; later deaths do not show. Schedules are NCI's codes, taken here to give the interval after Q, in days (D) or hours (H), and the number of doses after X. Some schedules carry Z or #; the key to these is not given. Some doses were run more than once; their values stand side by side, smallest first. Some molecules as drawn cover several salts, stereoisomers or complexes of the source; a dose is that of the sample tested. Where survival is the endpoint, this PubChem deposit counts one and a half times the control or more as active, and values a quarter to a half above the control carry no call in these data; other NCI protocols may use other cut-offs."}
{"smiles": "[O]=[Sb]([OH])([c]1ccc(Cl)cc1)[c]1ccc(Cl)cc1", "values": [{"measurement": "survivor count", "setting": "[1]", "result": "2 of 6"}, {"measurement": "survivor count", "setting": "[2]", "result": "0 of 6"}]}
{"smiles": "COc1cc2c(cc1OC)C1=C(CC2)C2CCCN2CC1", "note": "(stereo not given)", "values": [{"measurement": "survivor count", "setting": "dose: 100.0 mg/kg/injection, schedule: Q04DX003 (ip), vehicle: saline", "result": "0 of 6 and 1 of 6"}, {"measurement": "survivor count", "setting": "dose: 200.0 mg/kg/injection, schedule: Q04DX003 (ip), vehicle: saline", "result": "0 of 6"}, {"measurement": "survivor count", "setting": "[3]", "result": "0 of 6"}]}
{"smiles": "NN=C(c1ccccc1)c1ccccc1", "values": [{"measurement": "survivor count", "setting": "dose: 20.93 mg/kg/injection, schedule: Q01DX009 (ip), vehicle: Klucel (hydroxypropylcellulose) (HPC)", "result": "6 of 6"}, {"measurement": "survivor count", "setting": "dose: 335.0 mg/kg/injection, schedule: Q01DX009 (ip), vehicle: Klucel (hydroxypropylcellulose) (HPC)", "result": "0 of 6"}]}
{"smiles": "Cc1ccc2c(c1)C(=O)CCC2", "values": [{"measurement": "T/C", "setting": "dose: 100.0 mg/kg/injection, schedule: Q01DX001 (ip), vehicle: saline", "result": "125 % of control"}]}
{"smiles": "OC(CNc1ccc(Cl)cc1)CN1CCOCC1", "note": "(stereo not given)", "values": [{"measurement": "survivor count", "setting": "[3]", "result": "4 of 6"}]}
{"smiles": "COC12CC3C4=CCOC5CC(=O)N6c7ccccc7C1(CCN2C4)C6C53", "note": "(stereo not given)", "values": [{"measurement": "survivor count", "setting": "dose: 40.0 mg/kg/injection, schedule: Q01DX001 (ip), vehicle: saline", "result": "0 of 6"}, {"measurement": "survivor count", "setting": "dose: 75.0 mg/kg/injection, schedule: Q01DX001 (ip), vehicle: saline", "result": "0 of 6"}, {"measurement": "survivor count", "setting": "dose: 80.0 mg/kg/injection, schedule: Q01DX001 (ip), vehicle: saline", "result": "0 of 6"}, {"measurement": "survivor count", "setting": "[1]", "result": "0 of 6"}, {"measurement": "survivor count", "setting": "[2]", "result": "0 of 6"}]}
{"smiles": "Cc1c(C)c(N)c(C)c(C)c1N", "values": [{"measurement": "survivor count", "setting": "dose: 25.0 mg/kg/injection, schedule: Q01DX009 (ip), vehicle: Klucel (hydroxypropylcellulose) (HPC)", "result": "0 of 6"}, {"measurement": "survivor count", "setting": "dose: 25.0 mg/kg/injection, schedule: Q04DX003 (ip), vehicle: Klucel (hydroxypropylcellulose) (HPC)", "result": "0 of 6"}, {"measurement": "survivor count", "setting": "dose: 50.0 mg/kg/injection, schedule: Q04DX003 (ip), vehicle: Klucel (hydroxypropylcellulose) (HPC)", "result": "0 of 6"}, {"measurement": "survivor count", "setting": "[4]", "result": "0 of 6"}, {"measurement": "survivor count", "setting": "[5]", "result": "0 of 6"}, {"measurement": "survivor count", "setting": "[6]", "result": "0 of 6"}]}
{"smiles": "COc1ccc(C=[N+](C)CCc2ccc(OC)c(OC)c2)cc1OC", "values": [{"measurement": "survivor count", "setting": "dose: 400.0 mg/kg/injection, schedule: Q01DX009 (ip), vehicle: saline", "result": "0 of 6"}, {"measurement": "T/C", "setting": "[3]", "result": "134 % of control"}]}
{"smiles": "c1ccc2c[n+](CCc3c[nH]c4ccccc34)ccc2c1", "values": [{"measurement": "survivor count", "setting": "dose: 200.0 mg/kg/injection, schedule: Q04DX002 (ip), vehicle: Klucel (hydroxypropylcellulose) (HPC)", "result": "0 of 3"}, {"measurement": "survivor count", "setting": "dose: 400.0 mg/kg/injection, schedule: Q04DX002 (ip), vehicle: Klucel (hydroxypropylcellulose) (HPC)", "result": "0 of 3"}, {"measurement": "survivor count", "setting": "[6]", "result": "1 of 3"}]}
{"smiles": "Cc1ccc2c(c1)C=C/C(=C/c1cc[n+](C)c3ccccc13)N2C", "values": [{"measurement": "survivor count", "setting": "dose: 400.0 mg/kg/injection, schedule: Q01DX001 (ip), vehicle: other", "result": "1 of 4"}]}
{"smiles": "CN(CCS)Cc1ccccc1", "values": [{"measurement": "survivor count", "setting": "dose: 200.0 mg/kg/injection, schedule: Q04DX003 (ip), vehicle: saline with Tween-80", "result": "2 of 6"}, {"measurement": "survivor count", "setting": "dose: 400.0 mg/kg/injection, schedule: Q04DX003 (ip), vehicle: saline with Tween-80", "result": "0 of 6"}]}
{"smiles": "Cc1nc(Cl)c(CO)c(CO)c1O", "values": [{"measurement": "survivor count", "setting": "[4]", "result": "0 of 6"}, {"measurement": "survivor count", "setting": "[5]", "result": "0 of 6"}, {"measurement": "survivor count", "setting": "[6]", "result": "0 of 6"}]}
{"smiles": "CCCCCCP(=O)(CCCCCC)CCCCCC", "values": [{"measurement": "survivor count", "setting": "dose: 125.0 mg/kg/injection, schedule: Q01DX Z (ip), vehicle: methylcellulose (MC)", "result": "4 of 6"}, {"measurement": "survivor count", "setting": "dose: 150.0 mg/kg/injection, schedule: Q01DX Z (ip), vehicle: methylcellulose (MC)", "result": "1 of 6"}]}
{"smiles": "CC(C)C(CN=C(N)N)c1cccc2ccccc12", "note": "(stereo not given)", "values": [{"measurement": "survivor count", "setting": "dose: 100.0 mg/kg/injection, schedule: Q04DX002 (ip), vehicle: saline with Tween-80", "result": "0 of 3"}]}
{"smiles": "O=[N+]([O-])C(Br)(c1ccccc1)S(=O)(=O)Cc1ccccc1", "note": "(stereo not given)", "values": [{"measurement": "survivor count", "setting": "dose: 400.0 mg/kg/injection, schedule: Q01DX009 (ip), vehicle: Klucel (hydroxypropylcellulose) (HPC)", "result": "2 of 6"}]}
